Source: PubChem BioAssay AID1347076 (National Center for Advancing Translational Sciences (NCATS), 2019)
Out of some 400,000 compounds screened, about 13,000 (3.2%) were called active. This list was built around the results that the source calls inconclusive (neither active nor inactive); the mix of calls is not that of the screen. The call rests on the fitted dose curve; in most records, active means well fitted cell-killing curve with a large enough effect; inconclusive means small, poorly fitted or top-dose-only effect, or effect the other way; inactive means flat fitted curve, though single readings scatter. Potencies beside an inconclusive call are fits to weak or partial responses and may not hold up.

Test: qHTS assay for MDR1-selective chemotherapeutics: Primary screen using the drug-selected MDR subline cells KB-V1; further: nearly all actives have a fitted effect of over 60% in size
Details: KB-V1 MDR cells viability, CellTiter-Glo, 72 h; activity change, negative = cytotoxicity: at 46.1 µM (top of the series)
In short: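 Following 72 h at 37 degrees C with compound, KB-V1 cell viability was read by CellTiter-Glo luminescence, medium being phenol-red-free DMEM plus 10% FBS; concentration-response parameters came from normalized, curve-fitted qHTS data.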
On the % scale 0 is the no-effect control and ±100 the full control effect; potency means the concentration at half of the fitted maximal effect.

| SMILES | Potency | activity change, negative = cytotoxicity |
| --- | --- | --- |
| O/N=C/c1cn(-c2ccccc2)nc1-c1cccnc1 | inactive |  |
| CCN(CC)S(=O)(=O)c1cc(NC(=O)CCc2c(C)noc2C)ccc1C | inconclusive: 32.6 µM [cytotoxic, single point] |  |
| COc1ccc(Nc2nc(-c3ccc4c(c3)NC(=O)CO4)cs2)cc1 | inconclusive: 29.1 µM [cytotoxic, single point] |  |
| CC(C)OC(=O)c1nn2c(C(F)(F)F)cc(-c3ccco3)nc2c1Cl | inconclusive: 4.61 µM [rising, partial curve] |  |
| CCC1=C(OC(=O)N(CC)CC)N2C(=O)OC(=NCC3CC3)[C@]2(Cc2ccccc2)[C@H]2C1=CC[C@H]1C(=O)N(CC)C(=O)[C@H]12 | inactive |  |
| CCN(c1ccccc1)S(=O)(=O)c1ccc(Cl)c(NC(=O)CSc2nc(N)cc(=O)[nH]2)c1 | inactive |  |
| CNC(=S)NNC(=O)c1sc2cc(C(F)(F)F)cnc2c1-c1ccccn1 | inactive |  |
| O=C(COC(=O)c1ccco1)NCc1ccco1 | inconclusive: 23.1 µM [rising, single point] |  |
| COc1ccc(CCNC(=O)CCC(=O)N2CC(C)Oc3ccc(Cl)cc32)cc1OC (stereo not drawn) | inactive |  |
| CC(C)C(NC(=O)c1ccccc1NC(=O)C(C)(C)C)C(=O)N1CCOCC1 (stereo not drawn) | inconclusive: 13 µM [cytotoxic, single point] |  |
| CC(=O)N1CCCc2cc(S(=O)(=O)CCC(=O)N3CCN(c4cccc(C)c4)C(C)C3)ccc21 (stereo not drawn) | inconclusive: 20.6 µM [cytotoxic, single point] |  |
| Cc1ccc(/C=N/N2C(=S)SC(C)(C)C2N(O)C(=O)Nc2ccc([N+](=O)[O-])cc2)cc1 (stereo not drawn) | inconclusive: 20.6 µM [cytotoxic, single point] |  |
| CCCC(=O)Nc1ccccc1NC(=O)c1ccc(OC)cc1 | inconclusive: 18.4 µM [cytotoxic, single point] |  |
| COc1cc(/C=N\Nc2nc3ccccc3[nH]2)cc(OC)c1OC | active: 5.8 µM |  |
| NC(=O)C1CCCN1S(=O)(=O)c1ccc2ccccc2c1 (stereo not drawn) | inconclusive: 29.1 µM [rising, single point] |  |
| O=C(NCc1ccccc1)C1CCN(c2nc(-c3ccccc3)nc3c2CCC3)CC1 | inconclusive: 8.2 µM [cytotoxic, partial curve] |  |
| CCOc1ccc(NC(=O)c2c(C)nn(-c3ccc(F)cc3)c2-n2cccc2)cc1 | inactive |  |
| Cc1cccc(C(=O)Oc2ccccc2/C=N/NC(=O)c2ccc(NC(=O)C(C)(C)C)cc2)c1 | inconclusive: 14.6 µM [cytotoxic, partial curve] |  |
| COc1ccc(S(=O)(=O)N2CCN(C(=O)c3ccc(C)o3)CC2)cc1 | inconclusive: 29.1 µM [cytotoxic, single point] |  |
| C=CCNC(=O)c1onc(CSc2cccc(C)c2)c1C(=O)O | inactive |  |
| CC(C)c1ccc(OCC(=O)N(Cc2ccco2)C2CCS(=O)(=O)C2)cc1 (stereo not drawn) | inactive |  |
| CC1CCCN(C(=O)c2ccccc2OC2CCN(S(C)(=O)=O)CC2)C1 (stereo not drawn) | inconclusive: 32.6 µM [cytotoxic, single point] |  |
| O=C(Nc1ccc(OCc2cc(=O)n3c4c(sc3n2)CCCC4)cc1)c1cccc(F)c1 | inconclusive: 29.1 µM [rising, single point] |  |
| Cc1noc(C)c1NC(=O)Nc1ccc2c(c1)C(=O)N([C@@H](C)CO)C[C@@H](C)[C@H](CN(C)C(=O)Nc1cccc3ccccc13)OCCCC[C@H](C)O2 | inactive |  |
| CCc1c(C)sc2c1CCN(Cc1ccccc1)C2c1ccccc1 (stereo not drawn) | inactive |  |

Among those listed so far, two contain a tert-butyl group:

| SMILES | Potency | activity change, negative = cytotoxicity |
| --- | --- | --- |
| CC(C)C(NC(=O)c1ccccc1NC(=O)C(C)(C)C)C(=O)N1CCOCC1 (stereo not drawn) | inconclusive: 13 µM [cytotoxic, single point] |  |
| Cc1cccc(C(=O)Oc2ccccc2/C=N/NC(=O)c2ccc(NC(=O)C(C)(C)C)cc2)c1 | inconclusive: 14.6 µM [cytotoxic, partial curve] |  |

Following part:

| SMILES | Potency | activity change, negative = cytotoxicity |
| --- | --- | --- |
| Cc1cc(C)c(C(=O)COC(=O)c2cccnc2Cl)c(C)c1 | inactive |  |
| CC(=NNc1ccc2ccccc2n1)c1ccccc1O | active: 4.11 µM |  |
| O=C(CSc1ccccc1)Nc1cccc(S(=O)(=O)N2CCCC2)c1 | inconclusive: 23.1 µM [cytotoxic, partial curve, poor fit] |  |
| CCc1nc2c(OCCC3CCCCC3)cccn2c1N(C)C(=O)c1cccs1 | inconclusive: 29.1 µM [cytotoxic, single point] |  |
| Nc1c(Br)cc(/C=C/c2ccnc3ccccc23)cc1Br | inconclusive: 29.1 µM [cytotoxic, single point] |  |
| Fc1ccc(CN2CCCCCCC2)cc1 | inactive |  |
| CCCn1c(=O)c(C(=O)NCc2ccccc2)c(O)c2ccccc21 | inactive |  |
| CNc1nc(Cl)nc(Nc2ccccc2)n1 | active: 5.8 µM |  |
| COc1cccc(-c2cc(C(=O)NN3CCOCC3)c3ccccc3n2)c1 | inconclusive: 29.1 µM [cytotoxic, single point] |  |
| COc1ccccc1S(=O)(=O)Cc1ccc(C(=O)NCc2cccnc2)o1 | inconclusive: 0.731 µM [rising, full curve, poor fit] |  |
| O=C(NC1=NCCS1)c1sc2ccccc2c1Cl | inconclusive: 23.1 µM [cytotoxic, partial curve, poor fit] |  |
| CCOC(=O)c1nc(C)n(-c2ccc([N+](=O)[O-])cc2)n1 | inconclusive: 2.59 µM [cytotoxic, full curve] |  |
| COC(=O)c1sc2cccc(F)c2c1S(=O)(=O)N1CCN(c2cccc(OC)c2)CC1 | inactive |  |
| CN1CCN(C(=O)CCN2C(=O)/C(=C/c3cccc(Br)c3)SC2=S)CC1 | inactive |  |
| CCOC(=O)N1CCN(CC(=O)Nc2nccs2)CC1 | inactive |  |
| CCOc1ccc(NC(=O)CN(C)C(=O)CSCc2ccc(C)cc2)cc1OCC | inconclusive: 14.6 µM [cytotoxic, single point] |  |
| COC(=O)[C@@]1(C(C)C)N=C(c2cc(OC)c(OC)c(OC)c2)[C@]2(O1)C(=O)N(C)c1ccccc12 | inactive |  |
| Cn1cnc(NCc2ccccc2)c1[N+](=O)[O-] | inactive |  |
| COCCCNCCCOc1ccc(C(C)(C)c2ccccc2)cc1 | inconclusive: 10.3 µM [cytotoxic, partial curve] |  |
| Cc1ccc(CN2CCC(CNC(=O)C3CCCN(c4ncnc5c4nc4n5CCCCC4)C3)CC2)cc1 (stereo not drawn) | inconclusive: 16.4 µM [rising, single point] |  |
| Cc1ccc(Cn2nc(C)c(NC(=O)CSc3nc4c(c(C(F)(F)F)n3)CCc3ccccc3-4)c2C)cc1 | active: 4.11 µM |  |
| O=C1Nc2ccccc2Oc2cc(Oc3cccc(Cl)c3)ccc21 | inconclusive: 18.4 µM [cytotoxic, partial curve, poor fit] |  |
| CC(=O)Cc1nsc(NC(=O)c2ccc(COc3ccccc3Cl)o2)n1 | inconclusive: 16.4 µM [rising, single point] |  |
| Cc1ccccc1NC(=O)C(=O)NCCc1ccccc1 | inconclusive: 20.6 µM [rising, single point] |  |
| Fc1ccc(-c2nc3ccc(Br)cn3c2Cc2ccccc2C(F)(F)F)cc1 |  | inconclusive: -16.5% |

Looked up above:
Potency with Cn1cnc(NCc2ccccc2)c1[N+](=O)[O-] is entered as inactive
Potency with COc1ccccc1S(=O)(=O)Cc1ccc(C(=O)NCc2cccnc2)o1 is entered as inconclusive: 0.731 µM [rising, full curve, poor fit]

(cont.)

| SMILES | Potency | activity change, negative = cytotoxicity |
| --- | --- | --- |
| Cn1c(CNc2ccc(Br)cc2)nc2ccccc21 | active: 14.6 µM |  |
| COCCN(C(=O)CSc1nnc(C)n1-c1ccc(C)cc1)c1c(N)n(Cc2ccccc2)c(=O)[nH]c1=O | inconclusive: 10.3 µM [rising, partial curve] |  |
| CCCCNC(=S)N/N=C/c1ccc(C#N)cc1 | inactive |  |
| CCC(CC)C(=O)Nc1ccc(Cl)c(Cl)c1 | inconclusive: 16.4 µM [cytotoxic, single point] |  |
| Nc1nc(SCc2ccccc2Cl)c2ncn(C3OC(CO)C(O)C3O)c2n1 (stereo not drawn) | inactive |  |
| N#CC1=C(N)NC(SCc2ccc(Br)cc2)=C(C#N)C12CCCCC2 | inconclusive: 29.1 µM [cytotoxic, single point] |  |
| FC(F)(F)c1cnc(-c2cnc(-c3ccncc3)nc2)c(Cl)c1 | inconclusive: 20.6 µM [cytotoxic, single point] |  |
| Cc1cc(C)c(S(=O)(=O)N2CCC(n3c(C(F)(F)F)nc4cccnc43)CC2)c(C)c1 | inactive |  |
| OCc1cc(Br)ccc1OCc1nc2ccccc2s1 | active: 5.17 µM |  |
| O=C(c1ccc([N+](=O)[O-])cc1)N1CCN=C1SCc1ccccc1 | inconclusive: 20.6 µM [cytotoxic, single point] |  |
| CCOC(=O)C1(C)CCN1C(=O)c1cc2ccccc2s1 (stereo not drawn) | inactive |  |
| CCOc1ccc(NS(=O)(=O)c2ccc3ncsc3c2)cc1 | inactive |  |
| Cc1ccccc1SCC(=O)OCC(=O)Nc1ccc(N(C)C)cc1 | inconclusive: 0.651 µM [rising, full curve, poor fit] |  |
| COc1ccccc1N1CCN(c2nc3ccccc3n3cnnc23)CC1 | inconclusive: 23.1 µM [cytotoxic, single point] |  |
| Cc1ccc(-c2nc(-c3ccccn3)no2)cc1 | active: 6.51 µM |  |
| CC(C)c1nc(SCC(=O)NC2CCCC2)c2c(=O)n(C)c(=O)n(C)c2n1 | inactive |  |
| O=C1C(=O)c2ccccc2C(O)=C1CCCCl | inconclusive: 29.1 µM [cytotoxic, single point] |  |
| COc1ccc(-c2nc(-c3cc4cc(Br)ccc4oc3=O)cs2)cc1 | inconclusive: 20.6 µM [rising, partial curve, poor fit] |  |
| CC(C)(C)C(=O)Nc1ccc(C(=O)CN2C(=O)NC3(CCOc4ccccc43)C2=O)cc1 (stereo not drawn) | inactive |  |
| COc1ccccc1/C=C/c1nc2ccc(OC(C)=O)cc2c(=O)o1 | inconclusive: 8.2 µM [rising, partial curve, poor fit] |  |
| O=C(NC1CCCCC1)C(c1cccc2ccccc12)n1c(=O)c(-c2cc3ccccc3[nH]2)nc2ccccc21 (stereo not drawn) | inactive |  |
| O=C(NCC1COCCO1)c1ccc2nc(Cc3cccc(Cl)c3)oc2c1 (stereo not drawn) | inconclusive: 11.6 µM [cytotoxic, partial curve] |  |
| O=C(Nc1cccc(C(=O)NC2CC2)c1)c1ccc(Cl)c(S(=O)(=O)N2CCOCC2)c1 | inconclusive: 1.3 µM [rising, full curve, poor fit] |  |
